# Out of some 300,000 compounds screened, about 5,400 (1.8%) were called active. Inconclusive means that the source gave no clear call. Such entries were picked first, then a sample of the others. Calls follow the shape of the full dose curve; tested in HEK293 cells. A potency beside an inconclusive call is a rough fit, not a confirmed value.
# Test: qHTS for inhibitors of binding or entry into cells for Marburg Virus
# Conditions: Marburg virus pseudotyped entry inhibition, cell reporter; activity change, negative = inhibition: at 37.8 µM (top of the series) unless noted
# % is scaled to controls: 0 for no effect and ±100 for the full control effect; potency is read from the fitted curve at half-maximal effect.
Compound,Potency,"activity change, negative = inhibition"
COCCn1c(-c2ccccc2)nc2ccccc21,"inconclusive: 6.51 µM [activator, single point]",–
CCOc1ccc(CCNC(=O)c2nn(C)c3c2CS(=O)(=O)c2ccccc2-3)cc1OCC,"inconclusive: 35.5 µM [inhibitor, partial curve, poor fit]",–
C=CCN1CCN(C(c2cccc(OC)c2OC)c2nnnn2CCC(C)C)CC1 (centres undefined),–,inactive: -17.9% [at 46.1 µM]
CC(=O)Nc1ccc(S(=O)(=O)NC2CCCCCC2)cc1,"inconclusive: 2.82 µM [inhibitor, partial curve, poor fit]",–
Cc1ccc(S(=O)(=O)N2CCCCC2)cc1NC(=O)CSc1ncn[nH]1,"inconclusive: 39.8 µM [inhibitor, partial curve, poor fit]",–
Cc1ccc(N2CC(NC(=O)C3CC3)CC2=O)cc1 (centres undefined),–,inactive: -1.17% [at 46.1 µM]
O=C1CC(c2ccccc2)c2cc(O)ccc2O1 (centres undefined),–,inactive: -4.59%
Cc1ccc(S(=O)(=O)N(CC2CO2)c2cc(Cl)ccc2Cl)cc1 (centres undefined),"inconclusive: 3.98 µM [inhibitor, partial curve, poor fit]",–
CN1C(=O)C(O)(CC(=O)/C=C\c2ccc3c(c2)OCO3)c2ccccc21 (centres undefined),"inconclusive: 11.2 µM [inhibitor, partial curve, poor fit]",–
O=C(COc1ccc2c(c1)C(=O)CC1(CCCCC1)O2)NCc1ccccn1,"inconclusive: 32.6 µM [inhibitor, single point]",–
CCN(C(=O)c1ccc2c(Cl)c3c(nc2c1)CCC3)c1ccc(C)c(C)c1,"inconclusive: 29.1 µM [inhibitor, partial curve, poor fit]",–
C/C(=N\O)c1oc2ccc3c(C)cc(=O)oc3c2c1C,–,inactive: -1.96%
CCOC(=O)N1CCN(C(=S)Nc2ccc3nc(N4CCN(CC)CC4)cc(C)c3c2)CC1,"inconclusive: 29.1 µM [inhibitor, single point]",–
Cc1ccc(N2C(=O)NC(=O)/C(=C/c3cnn(-c4ccc(C)cc4)c3)C2=O)cc1,"inconclusive: 20 µM [activator, single point]",–
O=C(Nc1ccc(Oc2ccccc2)cc1)C1CCN(c2c3c(nc4ncnn24)CCC3)CC1,"inconclusive: 14.6 µM [inhibitor, partial curve]",–
N#CC(=Cc1ccc(O)c(O)c1)C(N)=S,"inconclusive: 2.51 µM [activator, single point]",–
Cn1c(SCC(=O)NNC(=O)c2ccc(Br)cc2)nnc1-c1cccnc1,–,inactive: 1.96%
O=C(N(c1ccccc1)c1ccccc1)N(c1ccccc1)c1ccccc1,–,inactive: 4.78%
O=C(CSc1nnc(-c2ccco2)o1)N1c2ccccc2CCc2ccccc21,"inconclusive: 7.3 µM [inhibitor, partial curve, poor fit]",–
CC1CCCN(C(=O)CN2CCN(C(=O)c3ccco3)CC2)C1 (centres undefined),"inconclusive: 35.5 µM [activator, single point]",–
COc1ccc(Sc2nc(-c3ccccn3)ncc2OC)cc1,active: 16.4 µM,–
COc1ccc(C2C(C(C)=O)=C(C)N=c3s/c(=C\c4ccc5c(c4)OCO5)c(=O)n32)c(OC)c1 (centres undefined),"inconclusive: 8.91 µM [inhibitor, single point]",–

# Single values from above.
# For activity change, negative = inhibition, Cn1c(SCC(=O)NNC(=O)c2ccc(Br)cc2)nnc1-c1cccnc1 is entered as inactive: 1.96%
# For activity change, negative = inhibition, Cc1ccc(N2CC(NC(=O)C3CC3)CC2=O)cc1 (centres undefined) is entered as inactive: -1.17% [at 46.1 µM]

# (next part)

Compound,Potency,"activity change, negative = inhibition"
COc1ccc(C(=O)Nc2ccccc2-c2nc3ccccc3s2)cc1OC,–,inactive: -0.281% [at 46.1 µM]
CC(/C=N/NC(=O)c1cc(-c2ccc(Cl)cc2)nc2ccccc12)=C\c1ccco1,"inconclusive: 3.55 µM [inhibitor, full curve, poor fit]",–
COC(=O)NCC12CC3CC(C1)CC(CNC(=O)OC)(C3)C2,"inconclusive: 2.91 µM [activator, full curve]",–
O=C(N/N=C/c1cn(-c2ccccc2)nc1-c1cc2ccccc2o1)c1cccnc1,"inconclusive: 3.98 µM [inhibitor, full curve, poor fit]",–
CCOc1ccc(S(=O)(=O)Nc2ccccc2SC)cc1,–,inactive: -20.1%
CC(=O)Nc1ccc(NC(=O)c2nc(S(=O)(=O)Cc3ccc(F)cc3)ncc2Cl)cc1,"inconclusive: 35.5 µM [inhibitor, partial curve, poor fit]",–
CCCOc1ccc(C(=O)NNC(=S)NC(=O)c2cc(-c3ccc(Cl)cc3)nc3ccccc23)cc1,"inconclusive: 10 µM [inhibitor, partial curve, poor fit]",–
COc1ccc(CCC(=O)Nc2ccc(C)c([N+](=O)[O-])c2)cc1,–,inactive: 10.9%
O=C(CCCOc1ccccc1)NCc1ccco1,"inconclusive: 2.91 µM [activator, full curve, poor fit]",–
Cn1c(N)c(C(=O)c2ccc(F)cc2F)c(=O)n(C)c1=O,"inconclusive: 1.26 µM [activator, single point]",–
COc1ccc(S(=O)(=O)N2CCC(Oc3ccc(-n4cnnn4)cc3)CC2)cc1,–,inactive: -5.19% [at 46.1 µM]
Cc1cc(C)nc(N/N=C/c2cc3c(cc2[N+](=O)[O-])OCO3)n1,"inconclusive: 1.58 µM [activator, partial curve, poor fit]",–
CN(C)C(=O)c1ccc(NS(=O)(=O)c2ccc3c(c2)OCCO3)cc1,"inconclusive: 0.501 µM [inhibitor, partial curve, poor fit]",–
CCc1nn(C(CC)C(=O)NCc2ccc(OC)c(OC)c2)c(=O)c2cc3oc(C)cc3n12 (centres undefined),–,inactive: 1.4% [at 46.1 µM]
O=[N+]([O-])c1cc(/C=N/O)ccc1Oc1ccccc1Cl,–,inactive: -7.31% [at 46.1 µM]
O=C(NC(=S)Nc1ccc(NC(=O)c2cccs2)cc1)c1cc2ccccc2o1,"inconclusive: 15.8 µM [inhibitor, partial curve, poor fit]",–
Cc1cc(C(=O)CSc2nc3ccccc3o2)c(C)n1C1CC1,"inconclusive: 29.1 µM [inhibitor, single point]",–
O=C(O)CCCCOn1ccnc1,"inconclusive: 5.62 µM [activator, single point]",–
CCOC(=O)c1sc(=S)n(-c2ccccc2Cl)c1SC,–,inactive: 2.03%
CCOc1ccc(NCc2cccn2-c2nnc(N3CCC(C(=O)NCc4ccccc4Cl)CC3)s2)cc1,–,inactive: 1.06% [at 46.1 µM]
CCOc1cccc(C(=O)Nc2cccc(C(C)=O)c2)c1,–,inactive: 4.78%
CCc1ccc(OCCSc2nc3ccccc3n2CC(=O)N2CCCCC2)cc1,–,inactive: -6.32% [at 46.1 µM]

# Source: PubChem BioAssay AID540276 (National Center for Advancing Translational Sciences (NCATS), 2011)
